Reference: patent US7279502B2 (Cellgate, Inc., priority 1999, dated 2007)

Assay: general procedure: solution-phase peptide synthesis; DCC / 1-hydroxybenzotriazole / N-methylmorpholine
[1] = coupling step, TFA salt (deprotected intermediates)
[2] = late stage modification step, TFA salt
[3] = late stage modification step, TFA salt (deprotected intermediates)

Substance	step yield [1] [%]	further results
Nα-Boc-Lys(Nε-Cbz)-Leu-Gln-β-Ala-β-Lapachone	42	
Lys(Nε-Cbz)-Leu-Gln-β-Ala-β-Lapachone		step yield [2]: 98%
Morpholino-Ser-Lys-Leu-Gln-β-Ala-β-Lapachone		step yield [3]: 24%
Morpholino-Ser(OBn)-Lys(Nε-Cbz)-Leu-Gln-β-Ala-β-Lapachone	36	
Morpholino-Ser(OBn)-Lys(Nε-Cl-Cbz)-Leu-Gln-Leu-β-Lapachone	81	
Morpholino-Ser-Lys-Leu-Gln-Leu-β-Lapachone (SEQ ID NO:12) (SL-11154)		step yield [3]: 14%
Lys(Nε-Cl-Cbz)-Leu-Gln-Leu-β-Lapachone		step yield [2]: 65%
Nα-Boc-Lys(Nε-Cl-Cbz)-Leu-Gln-Leu-β-Lapachone	54	
